Assay results reported in article PMC5342596.
These are yes or no findings as the source states them, for the method shown. In cells and extracts the contact can be indirect. Some binding calls cover weakened binding; strength is not graded here.

Amino acid sequences for entries named in this document (tags omitted).
UniProt O96013: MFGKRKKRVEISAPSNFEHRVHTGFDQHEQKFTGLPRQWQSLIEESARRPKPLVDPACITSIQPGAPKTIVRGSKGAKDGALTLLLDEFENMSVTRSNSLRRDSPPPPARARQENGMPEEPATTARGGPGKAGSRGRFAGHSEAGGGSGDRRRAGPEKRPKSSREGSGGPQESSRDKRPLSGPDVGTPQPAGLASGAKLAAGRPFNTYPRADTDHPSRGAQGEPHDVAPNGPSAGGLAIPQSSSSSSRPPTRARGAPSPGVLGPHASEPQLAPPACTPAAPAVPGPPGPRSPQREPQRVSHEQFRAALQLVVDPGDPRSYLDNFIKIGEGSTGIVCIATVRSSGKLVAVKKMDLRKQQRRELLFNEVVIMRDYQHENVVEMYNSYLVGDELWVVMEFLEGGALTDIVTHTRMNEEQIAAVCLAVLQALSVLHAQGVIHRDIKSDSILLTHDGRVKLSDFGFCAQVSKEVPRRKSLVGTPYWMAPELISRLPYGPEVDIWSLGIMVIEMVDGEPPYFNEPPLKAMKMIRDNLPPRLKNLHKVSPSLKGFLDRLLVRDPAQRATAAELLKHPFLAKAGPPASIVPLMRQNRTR
UniProt Q13153: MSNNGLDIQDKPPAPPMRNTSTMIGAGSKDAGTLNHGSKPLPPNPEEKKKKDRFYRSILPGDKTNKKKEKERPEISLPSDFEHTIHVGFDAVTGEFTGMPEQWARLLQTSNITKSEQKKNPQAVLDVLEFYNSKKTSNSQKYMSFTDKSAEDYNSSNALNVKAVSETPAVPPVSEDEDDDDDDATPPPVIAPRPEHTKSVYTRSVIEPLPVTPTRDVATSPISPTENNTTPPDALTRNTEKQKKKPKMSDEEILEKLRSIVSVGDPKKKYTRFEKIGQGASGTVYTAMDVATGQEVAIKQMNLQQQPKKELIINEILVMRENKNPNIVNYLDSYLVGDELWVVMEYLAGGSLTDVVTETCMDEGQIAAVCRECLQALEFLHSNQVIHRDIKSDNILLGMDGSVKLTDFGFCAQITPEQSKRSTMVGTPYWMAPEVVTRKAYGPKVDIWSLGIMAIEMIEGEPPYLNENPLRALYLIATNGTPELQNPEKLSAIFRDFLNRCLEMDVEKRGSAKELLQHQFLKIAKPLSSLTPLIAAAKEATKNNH
UniProt O15085: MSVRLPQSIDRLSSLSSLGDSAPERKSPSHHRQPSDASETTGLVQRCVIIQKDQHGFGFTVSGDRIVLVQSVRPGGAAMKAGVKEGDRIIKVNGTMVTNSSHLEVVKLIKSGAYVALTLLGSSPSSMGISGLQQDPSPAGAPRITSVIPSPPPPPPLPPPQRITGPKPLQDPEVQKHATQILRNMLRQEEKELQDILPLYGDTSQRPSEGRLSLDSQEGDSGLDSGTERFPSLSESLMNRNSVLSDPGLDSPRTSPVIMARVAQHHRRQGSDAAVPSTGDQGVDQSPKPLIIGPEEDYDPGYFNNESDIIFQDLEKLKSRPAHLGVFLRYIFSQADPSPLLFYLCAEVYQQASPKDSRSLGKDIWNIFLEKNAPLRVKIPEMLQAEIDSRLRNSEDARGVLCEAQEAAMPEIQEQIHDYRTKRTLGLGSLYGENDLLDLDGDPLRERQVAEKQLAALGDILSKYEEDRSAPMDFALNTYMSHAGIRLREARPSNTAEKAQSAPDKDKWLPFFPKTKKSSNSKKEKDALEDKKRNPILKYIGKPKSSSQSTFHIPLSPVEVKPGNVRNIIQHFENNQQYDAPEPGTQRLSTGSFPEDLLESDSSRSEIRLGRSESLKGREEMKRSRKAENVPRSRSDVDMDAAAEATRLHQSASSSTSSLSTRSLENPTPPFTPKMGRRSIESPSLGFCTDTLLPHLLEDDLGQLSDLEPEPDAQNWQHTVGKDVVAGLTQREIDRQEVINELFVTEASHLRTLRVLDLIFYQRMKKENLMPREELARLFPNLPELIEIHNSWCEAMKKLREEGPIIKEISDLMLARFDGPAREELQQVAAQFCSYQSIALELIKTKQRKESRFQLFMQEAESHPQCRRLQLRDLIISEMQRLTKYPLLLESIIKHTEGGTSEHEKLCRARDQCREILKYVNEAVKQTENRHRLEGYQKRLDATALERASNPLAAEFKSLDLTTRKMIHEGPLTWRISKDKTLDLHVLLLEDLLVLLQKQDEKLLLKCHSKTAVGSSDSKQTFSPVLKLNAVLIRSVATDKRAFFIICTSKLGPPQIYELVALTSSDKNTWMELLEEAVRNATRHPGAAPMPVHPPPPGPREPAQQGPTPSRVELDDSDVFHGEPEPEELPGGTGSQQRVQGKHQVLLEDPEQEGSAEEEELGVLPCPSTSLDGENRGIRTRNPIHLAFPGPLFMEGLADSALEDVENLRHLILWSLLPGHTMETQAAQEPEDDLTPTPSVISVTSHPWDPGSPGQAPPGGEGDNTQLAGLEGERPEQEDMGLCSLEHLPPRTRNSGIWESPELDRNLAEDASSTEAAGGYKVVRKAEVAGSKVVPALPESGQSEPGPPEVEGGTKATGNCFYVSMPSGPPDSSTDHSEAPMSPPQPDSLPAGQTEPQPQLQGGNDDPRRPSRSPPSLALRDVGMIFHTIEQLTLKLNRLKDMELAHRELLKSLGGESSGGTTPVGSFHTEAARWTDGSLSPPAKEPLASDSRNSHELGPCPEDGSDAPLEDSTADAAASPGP

What was measured:
GFP-PAK4 (human) = GFP-PAK4 (human) (UniProt O96013); assay: co-IP; GFP-Trap agarose beads (Chromotek) on lysates of HEK293 cells co-expressing GFP-PAK1 or GFP-PAK4 with myc-PDZ-RhoGEF, 48 h after transfection; lysis buffer 10 mM Tris/Cl pH 7.5, 150 mM NaCl, 0.5 mM EDTA, 0.5% NP40; 1 h at 4 °C; precipitate probed for myc-PDZ-RhoGEF
GFP-PAK1 (human) = GFP-PAK1 (human) (UniProt Q13153); assay: as above

binding (GFP-PAK4 (human)): binds
binding (GFP-PAK1 (human)): no binding
Substance: myc-PDZ-RhoGEF (from UniProt O15085 1-1522)
